No constants are given. Whether binding was seen depends on the method and setting. Some entries that bind do so weakly or less than the wild type.
Legend:
[1] = target: NOT1, full length (human) (human) (UniProt A5YKK6); assay: co-purification (metal affinity); NOT1, NOT2, NOT3 and CAF40 co-expressed in Sf21 cells; cleared lysate on a nickel-charged HiTrap IMAC column by His10 on NOT1; 50 mM HEPES/NaOH pH 7.5, 500 mM NaCl, 50 mM imidazole; eluted by an imidazole gradient
[2] = target: NOT1 (residues 1093-2376), MBP-tagged (human) (UniProt A5YKK6); assay: co-purification (amylose resin); truncated subunits co-expressed in E. coli; isolated from the crude lysate on amylose resin by the MBP tags; 50 mM potassium phosphate pH 7.5, 300 mM NaCl; eluted with 25 mM maltose
[3] = target: NOT1 (residues 1093-1607), MBP-tagged (human) (UniProt A5YKK6); assay: as above

Chains of the proteins cited; added tags and fusions are not shown. Lines headed by an entry give the natural chain unless they say otherwise; changes in a name come on top. A line that says so, or that is headed by a name, gives the form on record, which may keep a tag or linker. Residues count along the entry.
UniProt A5YKK6: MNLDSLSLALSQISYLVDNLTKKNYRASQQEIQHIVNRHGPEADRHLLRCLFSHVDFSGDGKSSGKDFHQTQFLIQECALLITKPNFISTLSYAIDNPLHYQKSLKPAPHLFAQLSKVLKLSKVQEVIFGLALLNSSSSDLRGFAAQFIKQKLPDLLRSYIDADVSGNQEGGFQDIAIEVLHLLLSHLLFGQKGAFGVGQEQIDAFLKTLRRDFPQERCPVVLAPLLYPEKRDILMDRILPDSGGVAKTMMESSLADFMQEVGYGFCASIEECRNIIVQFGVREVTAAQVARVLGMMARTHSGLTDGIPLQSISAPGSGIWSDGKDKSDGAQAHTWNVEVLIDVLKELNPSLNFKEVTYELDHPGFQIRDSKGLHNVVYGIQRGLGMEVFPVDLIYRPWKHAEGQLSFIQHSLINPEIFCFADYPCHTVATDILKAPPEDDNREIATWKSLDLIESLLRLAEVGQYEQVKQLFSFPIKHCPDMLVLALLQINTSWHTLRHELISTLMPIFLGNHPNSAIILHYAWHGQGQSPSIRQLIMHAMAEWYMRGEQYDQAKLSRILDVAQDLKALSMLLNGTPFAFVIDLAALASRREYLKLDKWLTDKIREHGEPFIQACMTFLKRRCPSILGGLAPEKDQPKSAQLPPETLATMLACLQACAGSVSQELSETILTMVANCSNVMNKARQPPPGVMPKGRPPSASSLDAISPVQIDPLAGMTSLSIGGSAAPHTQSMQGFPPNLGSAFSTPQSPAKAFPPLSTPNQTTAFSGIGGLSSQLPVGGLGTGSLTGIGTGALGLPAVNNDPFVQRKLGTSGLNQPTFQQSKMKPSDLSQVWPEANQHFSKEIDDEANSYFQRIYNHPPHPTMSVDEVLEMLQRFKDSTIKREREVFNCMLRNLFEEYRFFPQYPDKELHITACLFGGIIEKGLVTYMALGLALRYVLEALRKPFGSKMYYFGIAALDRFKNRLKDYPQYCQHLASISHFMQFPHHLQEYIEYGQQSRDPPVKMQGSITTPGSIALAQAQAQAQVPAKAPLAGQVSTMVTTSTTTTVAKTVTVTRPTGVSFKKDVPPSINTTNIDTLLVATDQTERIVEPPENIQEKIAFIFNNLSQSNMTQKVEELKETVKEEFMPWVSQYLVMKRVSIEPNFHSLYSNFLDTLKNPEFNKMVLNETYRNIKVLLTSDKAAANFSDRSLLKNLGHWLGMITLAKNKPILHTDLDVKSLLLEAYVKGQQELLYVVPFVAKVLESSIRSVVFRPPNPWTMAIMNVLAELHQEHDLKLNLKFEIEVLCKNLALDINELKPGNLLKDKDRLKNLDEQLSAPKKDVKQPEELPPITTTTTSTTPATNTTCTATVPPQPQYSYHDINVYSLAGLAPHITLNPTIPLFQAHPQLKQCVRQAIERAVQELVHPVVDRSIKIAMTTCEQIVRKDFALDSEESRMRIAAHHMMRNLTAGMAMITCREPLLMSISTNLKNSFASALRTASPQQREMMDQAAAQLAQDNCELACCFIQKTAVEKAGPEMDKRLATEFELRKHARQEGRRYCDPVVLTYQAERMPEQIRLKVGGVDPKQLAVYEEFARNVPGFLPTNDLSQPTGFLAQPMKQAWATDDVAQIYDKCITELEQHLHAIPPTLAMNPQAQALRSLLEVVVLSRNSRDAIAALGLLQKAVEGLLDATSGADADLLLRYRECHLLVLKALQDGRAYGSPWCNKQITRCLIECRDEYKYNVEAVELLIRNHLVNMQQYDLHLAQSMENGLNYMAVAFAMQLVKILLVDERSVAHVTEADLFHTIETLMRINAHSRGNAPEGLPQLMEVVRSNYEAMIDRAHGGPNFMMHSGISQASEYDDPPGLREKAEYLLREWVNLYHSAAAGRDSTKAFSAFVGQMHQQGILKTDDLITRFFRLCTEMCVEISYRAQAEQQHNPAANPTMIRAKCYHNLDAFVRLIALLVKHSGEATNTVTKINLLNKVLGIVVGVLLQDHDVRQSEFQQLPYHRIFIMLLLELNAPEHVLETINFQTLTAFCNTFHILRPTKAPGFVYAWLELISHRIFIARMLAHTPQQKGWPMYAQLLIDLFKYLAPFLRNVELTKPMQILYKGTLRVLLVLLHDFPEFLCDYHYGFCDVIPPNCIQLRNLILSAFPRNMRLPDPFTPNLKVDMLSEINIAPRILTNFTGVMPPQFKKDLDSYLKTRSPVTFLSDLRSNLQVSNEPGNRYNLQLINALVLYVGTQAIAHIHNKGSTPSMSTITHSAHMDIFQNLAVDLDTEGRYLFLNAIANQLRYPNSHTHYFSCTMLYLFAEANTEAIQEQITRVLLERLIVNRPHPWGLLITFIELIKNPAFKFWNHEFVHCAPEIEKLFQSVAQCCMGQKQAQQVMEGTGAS
NOT1 (residues 1093-2376), MBP-tagged: residues 1093-2376 of A5YKK6
NOT1 (residues 1093-1607), MBP-tagged: residues 1093-1607 of A5YKK6
UniProt O75175: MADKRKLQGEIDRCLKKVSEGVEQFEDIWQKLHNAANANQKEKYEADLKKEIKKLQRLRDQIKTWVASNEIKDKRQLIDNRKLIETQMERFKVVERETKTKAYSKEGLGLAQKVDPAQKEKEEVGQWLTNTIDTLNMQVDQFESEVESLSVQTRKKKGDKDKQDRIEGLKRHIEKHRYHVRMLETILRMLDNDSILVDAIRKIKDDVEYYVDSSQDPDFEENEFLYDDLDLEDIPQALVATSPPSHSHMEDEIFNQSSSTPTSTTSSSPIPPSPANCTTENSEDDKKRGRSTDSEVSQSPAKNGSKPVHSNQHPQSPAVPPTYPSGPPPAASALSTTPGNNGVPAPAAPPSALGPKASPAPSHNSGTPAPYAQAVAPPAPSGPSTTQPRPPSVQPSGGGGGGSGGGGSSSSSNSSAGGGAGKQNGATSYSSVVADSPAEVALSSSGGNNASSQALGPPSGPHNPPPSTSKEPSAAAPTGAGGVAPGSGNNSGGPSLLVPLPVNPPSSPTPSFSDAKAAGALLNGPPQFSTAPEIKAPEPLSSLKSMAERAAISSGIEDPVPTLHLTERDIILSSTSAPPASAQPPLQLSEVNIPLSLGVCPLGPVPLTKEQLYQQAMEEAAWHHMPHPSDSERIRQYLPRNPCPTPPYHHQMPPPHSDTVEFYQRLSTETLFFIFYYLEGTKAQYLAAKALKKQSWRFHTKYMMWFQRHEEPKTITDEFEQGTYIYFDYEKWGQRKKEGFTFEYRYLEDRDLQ
UniProt Q9NZN8: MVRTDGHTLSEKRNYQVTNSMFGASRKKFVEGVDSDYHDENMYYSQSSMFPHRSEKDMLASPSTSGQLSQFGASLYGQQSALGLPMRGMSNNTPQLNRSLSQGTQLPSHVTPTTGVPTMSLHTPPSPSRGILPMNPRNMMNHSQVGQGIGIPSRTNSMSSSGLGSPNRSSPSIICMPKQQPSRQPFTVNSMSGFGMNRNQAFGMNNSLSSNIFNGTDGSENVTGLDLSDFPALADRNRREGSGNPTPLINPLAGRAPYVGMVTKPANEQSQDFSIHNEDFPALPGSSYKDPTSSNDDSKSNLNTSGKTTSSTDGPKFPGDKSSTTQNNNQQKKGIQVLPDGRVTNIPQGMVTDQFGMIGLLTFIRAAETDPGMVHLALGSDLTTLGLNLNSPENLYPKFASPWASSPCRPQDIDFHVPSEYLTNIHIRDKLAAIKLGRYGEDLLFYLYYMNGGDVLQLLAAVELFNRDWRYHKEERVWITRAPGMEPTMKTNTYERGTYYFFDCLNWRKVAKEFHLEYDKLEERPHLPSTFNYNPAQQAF
UniProt Q92600: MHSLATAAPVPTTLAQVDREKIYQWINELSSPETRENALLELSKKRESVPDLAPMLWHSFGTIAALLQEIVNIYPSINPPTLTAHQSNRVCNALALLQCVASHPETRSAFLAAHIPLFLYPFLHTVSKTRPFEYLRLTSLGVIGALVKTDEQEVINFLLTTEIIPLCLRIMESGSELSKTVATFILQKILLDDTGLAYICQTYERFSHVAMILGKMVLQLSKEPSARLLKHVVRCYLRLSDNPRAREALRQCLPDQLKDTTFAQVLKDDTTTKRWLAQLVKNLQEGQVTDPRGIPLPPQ

## NOT3, full length (human) (from UniProt O75175 1-753)
[1]
  binding: binds

## NOT3 (residues 607-753), His6-tagged (from UniProt O75175 607-753) (domain or fragment)
[2]
  binding: binds

## NOT2, full length (human) (from UniProt Q9NZN8 1-540)
[1]
  binding: binds

## CAF40, full length (human) (from UniProt Q92600 1-299)
[1]
  binding: binds

## NOT2 (residues 344-540), MBP-tagged (from UniProt Q9NZN8 344-540) (domain or fragment)
[2]
  binding: binds

## CAF40 (residues 19-285), His6-tagged, of the CCR4-NOT MINI scaffold (from UniProt Q92600 19-285) (domain or fragment)
[2]
  binding: binds

## CAF40 (residues 19-285), of the NOT1:CAF40 base of CCR4-NOT CORE (from UniProt Q92600 19-285) (domain or fragment)
[3]
  binding: binds

Source: paper PMC6639331
